From PMC2034084, “Pharmacokinetics and binding of the bioreductive probe for hypoxia, NITP: effect of route of administration” (British Journal of Cancer, 1995)

Test system: CaNT tumours
Assay: Bound adducts of NITP in cells from tumours, fluorescent immunochemical staining and flow cytometry
Format: in vivo, CBA mice
Details: i.p. in peanut oil + 10% DMSO, 0.45 umol g-1
From the text: Britsh Journal of Cancer (1995) 72, 1462-1468 ft (32) 1995 Stockton Press All rights reserved 0007-0920/95 $12.00 Pharmacokinetics and binding of the bioreductive probe for hypoxia, NITP: effect of route of administration RJ Hodgkiss, MRL Stratford, MF Dennis and SA Hill Gray Laboratory Cancer Research Trust, P.O. Box 100, Mount Vernon Hospital, Northwood, Middlesex HA6 2JR, UK. Summary The novel compound 7-[4'-(2-nitroimidazol-l-yl)-butyl]-theophylline (NITP) can be used as an immunologically detectable probe for hypoxic cells. Because of the limited water solubility of NITP, it has been administered dissolved in peanut oil with 10% dimethylsulphoxide (DMSO). A new aqueous formulation has been devised, based on a 50% solution of a modified P-cyclodextrin (Molecusol HPB), which increases the water solubility of NITP 10-fold. […] Binding of the marker to hypoxic cells within tumours was also measured after the different routes of administration. […] The novel compound 7-[4'-(2-nitroimidazol-1-yl)-butyl]- theophylline (NITP), has been described as an immuno- logically detectable bioreductive probe for hypoxic cells (Hodgkiss et al., 1991), and appears to offer promise as a method of quantifying tumour hypoxia in vivo. […]

SMILES: Cn1c(=O)c2c(ncn2CCCCn2ccnc2[N+](=O)[O-])n(C)c1=O [NITP, 7-[4'-(2-nitroimidazol-l-yl)-butyl]-theophylline]
- time at which binding of NITP to cells in tumours began: ~30 min
- time to plateau of binding in tumour cells: about 60 min
